PubChem BioAssay AID1259405 | NCATS, 2018
In all, the deposit lists about 50,000 reagents; below is a random part of them. Over the whole deposit, about 4,000 (8%) got an active call. 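Mouse siRNA library applied to hamster cells; one well for each siRNA.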

Test: 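Mouse-designed siRNAs used to find CHO productivity engineering targets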 (primary screen)
System: Chinese hamster CHO-K1 ovary cells with stable secreted eGFP expression
Reagent: single siRNA against mouse genes, 0.8 pmol siRNA per well (2 µl of 400 nM stock)
Time to read-out: 3 days
Measurement: 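Per-well intracellular GFP measured by laser scanning cytometry, plus viability from ATP luminescence, each relative to plate median of non-targeting control wells, in %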
Direction: GFP, % of control: higher = more GFP per well, higher productivity; viability (ATP), % of control: higher = more viable cells (more ATP)
Active means: 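a knock-down is called active if GFP reaches 120% or more of non-targeting control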

| gene symbol | PubChem SID | GFP, % of control | viability (ATP), % of control | activity call |
| --- | --- | --- | --- | --- |
| Agxt (alanine-glyoxylate aminotransferase) | SID363570571 | 115 | 91.2 | inactive |
| Agxt (alanine-glyoxylate aminotransferase) | SID363579371 | 99.1 | 120 | inactive |
| Agxt (alanine-glyoxylate aminotransferase) | SID363583243 | 103 | 108 | inactive |
| Vmn2r122 (vomeronasal 2, receptor, 122) | SID363545084 | 80.3 | 80.1 | inactive |
| Vmn2r122 (vomeronasal 2, receptor, 122) | SID363551412 | 104 | 96.1 | inactive |
| Vmn2r122 (vomeronasal 2, receptor, 122) | SID363557961 | 54.9 | 46.4 | inactive |
| Ripk3 (receptor-interacting serine-threonine kinase 3) | SID363581664 | 50.7 | 61.4 | inactive |
| Ripk3 (receptor-interacting serine-threonine kinase 3) | SID363589158 | 109 | 83.3 | inactive |
| Spats2 (spermatogenesis associated, serine-rich 2) | SID363556403 | 97.4 | 59.8 | inactive |
| Spats2 (spermatogenesis associated, serine-rich 2) | SID363586853 | 75.2 | 122 | inactive |
| Spats2 (spermatogenesis associated, serine-rich 2) | SID363588961 | 159 | 136 | active |
| Zfp68 (zinc finger protein 68) | SID363540887 | 67.1 | 59.8 | inactive |
| Zfp68 (zinc finger protein 68) | SID363555514 | 64.2 | 67.2 | inactive |
| Zfp68 (zinc finger protein 68) | SID363565803 | 66.7 | 66.6 | inactive |
| Wdr41 (WD repeat domain 41) | SID363556664 | 49.3 | 50.4 | inactive |
| Wdr41 (WD repeat domain 41) | SID363563568 | 74.9 | 81.3 | inactive |
| Wdr41 (WD repeat domain 41) | SID363587114 | 109 | 110 | inactive |
| Pgk1 (phosphoglycerate kinase 1) | SID363547294 | 112 | 86.4 | inactive |
| Pgk1 (phosphoglycerate kinase 1) | SID363558063 | 75.4 | 86.3 | inactive |
| Pgk1 (phosphoglycerate kinase 1) | SID363559821 | 78.9 | 75.6 | inactive |
| Sprr2b (small proline-rich protein 2B) | SID363556439 | 31.6 | 39.7 | inactive |
| Sprr2b (small proline-rich protein 2B) | SID363586889 | 34.5 | 52.9 | inactive |
| Sprr2b (small proline-rich protein 2B) | SID363588997 | 114 | 112 | inactive |
| Or2t45 (olfactory receptor family 2 subfamily T member 45) | SID363554120 | 40.3 | 51.1 | inactive |
| Or2t45 (olfactory receptor family 2 subfamily T member 45) | SID363567567 | 48.6 | 49.3 | inactive |
| Or2t45 (olfactory receptor family 2 subfamily T member 45) | SID363584924 | 31.7 | 80.5 | inactive |
| Mrps10 (mitochondrial ribosomal protein S10) | SID363562248 | 116 | 60 | inactive |
| Mrps10 (mitochondrial ribosomal protein S10) | SID363567386 | 120 | 58.1 | active |
| Mrps10 (mitochondrial ribosomal protein S10) | SID363584743 | 92.3 | 49.8 | inactive |
| Ly6m (lymphocyte antigen 6 family member M) | SID363543607 | 77 | 59.8 | inactive |
| Ly6m (lymphocyte antigen 6 family member M) | SID363553100 | 54 | 63.3 | inactive |
| Ly6m (lymphocyte antigen 6 family member M) | SID363558948 | 71.1 | 84.6 | inactive |
| Nxf7 (nuclear RNA export factor 7) | SID363545910 | 51.4 | 65.1 | inactive |
| Nxf7 (nuclear RNA export factor 7) | SID363549423 | 74 | 51 | inactive |
| Nxf7 (nuclear RNA export factor 7) | SID363563229 | 134 | 81.8 | active |
| Plekhg6 (pleckstrin homology and RhoGEF domain containing G6) | SID363545519 | 137 | 64.5 | active |
| Plekhg6 (pleckstrin homology and RhoGEF domain containing G6) | SID363549032 | 98.7 | 78.8 | inactive |
| Plekhg6 (pleckstrin homology and RhoGEF domain containing G6) | SID363562838 | 61.1 | 67 | inactive |
| Cd70 (CD70 antigen) | SID363556417 | 64.3 | 64.8 | inactive |
| Cd70 (CD70 antigen) | SID363586867 | 95.8 | 81.3 | inactive |
| Cd70 (CD70 antigen) | SID363588975 | 120 | 125 | inactive |
| Slc25a45 | SID363545614 | 118 | 110 | inactive |
| Slc25a45 | SID363549127 | 59.5 | 59.6 | inactive |
| Slc25a45 | SID363562933 | 72.4 | 70.6 | inactive |
| Tmc4 (transmembrane channel-like gene family 4) | SID363547786 | 101 | 39.5 | inactive |
| Tmc4 (transmembrane channel-like gene family 4) | SID363558555 | 57.6 | 66.3 | inactive |
| Tmc4 (transmembrane channel-like gene family 4) | SID363560313 | 63.7 | 106 | inactive |
| Cd34 (CD34 antigen) | SID363555179 | 49.4 | 59.3 | inactive |
| Cd34 (CD34 antigen) | SID363563840 | 33.5 | 49.5 | inactive |
| Cd34 (CD34 antigen) | SID363587386 | 99.1 | 96.6 | inactive |
| Pdx1 (pancreatic and duodenal homeobox 1) | SID363573728 | 70.8 | 76.8 | inactive |
| Pdx1 (pancreatic and duodenal homeobox 1) | SID363581472 | 81.4 | 56.4 | inactive |
| Pdx1 (pancreatic and duodenal homeobox 1) | SID363583936 | 82.8 | 108 | inactive |
| Nup214 (nucleoporin 214) | SID363569369 | 113 | 101 | inactive |
| Nup214 (nucleoporin 214) | SID363577113 | 77.8 | 58.8 | inactive |
| Nup214 (nucleoporin 214) | SID363578521 | 47.3 | 35.9 | inactive |
| Dao (D-amino acid oxidase) | SID363568937 | 85.1 | 90.8 | inactive |
| Dao (D-amino acid oxidase) | SID363576329 | 31 | 33.5 | inactive |
| Dao (D-amino acid oxidase) | SID363579145 | 78.9 | 68.9 | inactive |
| Or9i1b (olfactory receptor family 9 subfamily I member 1B) | SID363544707 | 35.8 | 48.6 | inactive |
| Or9i1b (olfactory receptor family 9 subfamily I member 1B) | SID363551035 | 32.9 | 75 | inactive |
| Or9i1b (olfactory receptor family 9 subfamily I member 1B) | SID363557584 | 38 | 57.8 | inactive |
| Gspt2 (G1 to S phase transition 2) | SID363553969 | 72.3 | 52.7 | inactive |
| Gspt2 (G1 to S phase transition 2) | SID363561926 | 106 | 87.4 | inactive |
| Gspt2 (G1 to S phase transition 2) | SID363565664 | 99.2 | 80.5 | inactive |
| Akr1b10 (aldo-keto reductase family 1, member B10) | SID363544869 | 67.5 | 33 | inactive |
| Akr1b10 (aldo-keto reductase family 1, member B10) | SID363551197 | 66.3 | 59.9 | inactive |
| Akr1b10 (aldo-keto reductase family 1, member B10) | SID363557746 | 36.7 | 55.1 | inactive |
| Ap5z1 (adaptor-related protein complex 5, zeta 1 subunit) | SID363550200 | 57.3 | 93.1 | inactive |
| Ap5z1 (adaptor-related protein complex 5, zeta 1 subunit) | SID363564709 | 105 | 63.8 | inactive |
| Ap5z1 (adaptor-related protein complex 5, zeta 1 subunit) | SID363588254 | 140 | 113 | active |
| H2-Ob (histocompatibility 2, O region beta locus) | SID363553752 | 64.5 | 47.2 | inactive |
| H2-Ob (histocompatibility 2, O region beta locus) | SID363561709 | 98.9 | 99 | inactive |
| H2-Ob (histocompatibility 2, O region beta locus) | SID363565447 | 81.3 | 79.9 | inactive |
| Tsks (testis-specific serine kinase substrate) | SID363581777 | 113 | 76.2 | inactive |
| Tsks (testis-specific serine kinase substrate) | SID363589271 | 105 | 91.4 | inactive |
| Pif1 (PIF1 5'-to-3' DNA helicase) | SID363546727 | 89.7 | 70.5 | inactive |
| Pif1 (PIF1 5'-to-3' DNA helicase) | SID363548483 | 79.5 | 102 | inactive |
| Pif1 (PIF1 5'-to-3' DNA helicase) | SID363560661 | 111 | 78.1 | inactive |
| Sec63 (SEC63 homolog, protein translocation regulator) | SID363582330 | 132 | 126 | active |
| Sec63 (SEC63 homolog, protein translocation regulator) | SID363584090 | 116 | 99.7 | inactive |
| Tnfrsf1b (tumor necrosis factor receptor superfamily, member 1b) | SID363568612 | 62.9 | 58.7 | inactive |
| Tnfrsf1b (tumor necrosis factor receptor superfamily, member 1b) | SID363576004 | 62.3 | 52.2 | inactive |
| Tnfrsf1b (tumor necrosis factor receptor superfamily, member 1b) | SID363578820 | 50.9 | 50.8 | inactive |

Active calls (from the list above):
| gene symbol | PubChem SID | GFP, % of control | viability (ATP), % of control | activity call |
| --- | --- | --- | --- | --- |
| Spats2 (spermatogenesis associated, serine-rich 2) | SID363588961 | 159 | 136 | active |
| Mrps10 (mitochondrial ribosomal protein S10) | SID363567386 | 120 | 58.1 | active |
| Nxf7 (nuclear RNA export factor 7) | SID363563229 | 134 | 81.8 | active |
| Plekhg6 (pleckstrin homology and RhoGEF domain containing G6) | SID363545519 | 137 | 64.5 | active |
| Ap5z1 (adaptor-related protein complex 5, zeta 1 subunit) | SID363588254 | 140 | 113 | active |
| Sec63 (SEC63 homolog, protein translocation regulator) | SID363582330 | 132 | 126 | active |
